# Experimental data taken from PubChem BioAssay (NCATS).
# The shares of active, inactive and inconclusive entries below differ from those in the screen. Potencies of inconclusive entries are doubtful fits and often do not repeat. Calls of active or inactive are those of the source. Calls follow the shape of the dose curve; as a rule, active = well fitted inhibition curve with a large enough effect; inconclusive = small, poorly fitted or top-dose-only effect; inactive = no such curve, though single readings can be large or run the other way.
# Experiment: Counterscreen for APE1 Inhibitors: Fluorescent Dye Displacement Assay (AID 2564);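 also: loss of thiazole orange fluorescence as the dye is displaced from duplex DNA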
# Conditions: DNA fluorescent dye displacement counterscreen, fluorescence; series mostly up to 28.5 µM
# Text: In order to distinguish true inhibitors of DNA-processing enzymes from promiscuous DNA-binding compounds among screening assay hits, we developed a homogeneous and miniaturized assay based on fluorescent dye displacement test as originally described by Tse and Boger (Accounts of Chemical Research (2004) 37: 61-69). The assay is based on the strong enhancement of fluorescence when Thiazole Orange (ThO) binds to double-stranded DNA: conversely, in the presence of a DNA-binding compound, Thiazole Orange is displaced from the DNA and its fluorescence is reduced.
# Buffer. 50 mM Tris-HCl (pH7.5) containing 50mM NaCl, 2 mM MgCl2, and 0.01% Tween-20.
# Buffer containing 250 nM ThO in columns 3 and 4 as negative control (no dsDNA).
# Reaction mixture: 250 nM ThO and 50 nM dsDNA at final concentration dispensed throughout the plate: in columns 1, 2, 5-48. Column 1 is neutral (100% activity).
# 5''TAMRA- TC ACC FTC GTA CGA CTC
# 3'' AG TGG GAG CAT GCT GAG
# where F denotes tetrahydrofuran.
# Control: Pintool transfer of control compound WB64 (W4761, Sigma-Aldrich) to column 2 of all assay plates as a two-fold 16-point dilution in duplicate (concentration range 5.75 uM - 0.175 nM).
# Four uL of reaction mixtures were dispensed to 1536-well Greiner black solid bottom plates. Compounds (23 nL) were transferred […] in order to measure the endpoint fluorescence using 480 nm excitation and 540 nm emission fluorescence protocol.
# Potency is read from the fitted curve at half-maximal effect.
row,SMILES,Potency
1,COc1ccc(-c2cnnc(N/N=C/c3ccc(O)c(O)c3)n2)cc1,"inconclusive: 11.2 µM [inhibitor, partial curve]"
2,CCOc1ccccc1-c1nnc2n1N=C(c1ccc(OC)c(OC)c1)CS2,"inconclusive: 35.5 µM [inhibitor, single point]"
3,N#Cc1c(NC(=O)CSc2ncnc3sccc23)oc(-c2ccco2)c1-c1ccco1,active: 10 µM
4,COc1ccc(CCn2c(O)cc3nn(-c4nc5ccccc5s4)c(=O)c-3c2C)cc1,"inconclusive: 10 µM [inhibitor, partial curve]"
5,Cc1ccc2c(=O)c3ccccc3n(CCCN)c2c1C,active: 14.1 µM
6,O=C(O)CC[C@@H](C(=O)O)N1C(=O)c2ccccc2C1=O,inactive
7,Cc1ccccc1-c1ccc2ncnc(NCc3cccs3)c2c1,"inconclusive: 14.1 µM [inhibitor, partial curve]"
8,CC(=O)Nc1sc2c(c1-c1nc3ccccc3s1)CCN(C(C)C)C2,inactive
9,CCOC(=O)C(CCc1ccccc1)NC(C)C(=O)N1CCCC1C(=O)O (configuration not stated),inactive
10,O=C(CSc1nnc(SCc2ccccc2)s1)N/N=C/C=C\c1ccco1,active: 12.6 µM
11,O=C(O)c1cc(O)c2c(c1)C(=O)c1cc(O)cc(O)c1C2=O,active: 12.6 µM
12,COc1ccc(C(=O)CSc2nnc(-c3ccco3)c(-c3ccco3)n2)cc1,"inconclusive: 17.8 µM [inhibitor, single point]"
13,COc1c(-c2ccc(O)c(O)c2)oc2cc(O)cc(O)c2c1=O,"inconclusive: 6.31 µM [inhibitor, partial curve]"
14,CN(C)c1ccc(O)c2c1C[C@@H]1C[C@H]3C(N(C)C)C(=O)C(C(N)=O)=C(O)[C@@]3(O)C(=O)C1=C2O (some centres not stated),inactive
15,COc1c(O)cc2oc(-c3ccc(O)c(O)c3)cc(=O)c2c1O,inactive
16,C=C1c2c(Cl)ccc(O)c2C(O)=C2C(=O)[C@]3(O)C(O)=C(C(N)=O)C(=O)C(N(C)C)C3C(O)C12 (some centres not stated),"inconclusive: 28.2 µM [inhibitor, partial curve, poor fit]"
17,COc1ccc(NC(=O)c2cc(-c3ccco3)nc3ccccc23)cc1S(=O)(=O)N1CCOCC1,active: 12.6 µM
18,O=c1c(O)c(Br)ccc2c(Br)c(O)c(O)c(O)c12,"inconclusive: 0.891 µM [inhibitor, full curve]"
19,CN(C)C(=O)c1ccc(-c2ccc3ncnc(NCc4cccs4)c3c2)cc1,"inconclusive: 8.91 µM [inhibitor, full curve]"
20,Cc1ccc(N=C2NC(=O)/C(=C/C=C/c3ccco3)S2)cc1,active: 12.6 µM
21,Cc1cc(SCC(=O)c2ccc(O)c(O)c2)nc2ccccc12,active: 12.6 µM
22,O=C1C=CC2=C3c4cc(O)c(O)cc4CC3(O)COC2=C1O (configuration not stated),"inconclusive: 7.94 µM [inhibitor, partial curve]"

# Ordered by formula weight (rising): some entries from above
row,SMILES,Potency
15,COc1c(O)cc2oc(-c3ccc(O)c(O)c3)cc(=O)c2c1O,inactive
21,Cc1cc(SCC(=O)c2ccc(O)c(O)c2)nc2ccccc12,active: 12.6 µM
9,CCOC(=O)C(CCc1ccccc1)NC(C)C(=O)N1CCCC1C(=O)O (configuration not stated),inactive
4,COc1ccc(CCn2c(O)cc3nn(-c4nc5ccccc5s4)c(=O)c-3c2C)cc1,"inconclusive: 10 µM [inhibitor, partial curve]"
3,N#Cc1c(NC(=O)CSc2ncnc3sccc23)oc(-c2ccco2)c1-c1ccco1,active: 10 µM
